Assay results taken from ChEMBL document CHEMBL4190317, “Design, synthesis, and biological evaluation of novel 3-substituted imidazo[1,2-a]pyridine and quinazolin-4(3H)-one derivatives as PI3Kα inhibitors” (Eur J Med Chem, 2017).

Tests used:
SK-HEP1 = experiment: Antiproliferative activity against human SKHEP1 cells after 72 hrs by SRB assay; conditions: SK-HEP1, 72 h
SNU-638 = experiment: Antiproliferative activity against human SNU638 cells after 72 hrs by SRB assay; conditions: SNU-638, 72 h
HUVEC = experiment: Cytotoxicity against HUVEC after 72 hrs by SRB assay; conditions: Homo sapiens
HCT-116 = experiment: cells; conditions: Homo sapiens, HCT-116, 72 h

COc1ncc(-c2ccc3ncc(C(=O)NCCN4CCOCC4)n3c2)cc1NS(=O)(=O)c1ccc(F)cc1F
IC50 (SK-HEP1): 110 nM | IC50 (SNU-638): 10 nM | IC50 (HUVEC): 2940 nM | IC50 (HCT-116): 10 nM
